According to publication PMC2494995, “The central proline rich region of POB1/REPS2 plays a regulatory role in epidermal growth factor receptor endocytosis by binding to 14-3-3 and SH3 domain-containing proteins” (BMC Biochemistry, 2008):
These are yes or no findings as the source states them, for the method shown. Binding can be weak; no strength is given. For part of these data: In cells and extracts the contact can be indirect. For part of these data: Where a sequence is shown, tags or fusion partners need not be part of it.

Tests used:
[1] = molecular target: T1, Amphiphysin II-FLAG (full length) (UniProt O00499); assay: co-IP; transfected HEK293 cells lysed in JS buffer; anti-FLAG M2 affinity gel, anti-HA or anti-Myc antibody, 2 hours at 4°C; washed in NET buffer; Western blot
T1 sequence: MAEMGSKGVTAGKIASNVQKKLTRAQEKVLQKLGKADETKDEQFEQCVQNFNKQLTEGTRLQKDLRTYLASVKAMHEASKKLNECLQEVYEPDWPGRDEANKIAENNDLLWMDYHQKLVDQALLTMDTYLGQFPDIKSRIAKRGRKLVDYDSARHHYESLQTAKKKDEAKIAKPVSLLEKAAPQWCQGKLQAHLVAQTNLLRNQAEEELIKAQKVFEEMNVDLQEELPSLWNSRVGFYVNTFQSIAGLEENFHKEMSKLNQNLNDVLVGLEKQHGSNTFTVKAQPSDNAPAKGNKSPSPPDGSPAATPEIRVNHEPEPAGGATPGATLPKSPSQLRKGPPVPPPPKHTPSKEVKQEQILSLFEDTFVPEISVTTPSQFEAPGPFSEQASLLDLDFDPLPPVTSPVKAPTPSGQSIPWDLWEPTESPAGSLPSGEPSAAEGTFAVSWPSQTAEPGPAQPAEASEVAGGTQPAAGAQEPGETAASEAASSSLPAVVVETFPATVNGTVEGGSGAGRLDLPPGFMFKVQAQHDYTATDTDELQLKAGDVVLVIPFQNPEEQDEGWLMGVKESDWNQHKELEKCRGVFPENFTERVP

[2] = molecular target: T2, GST-SH3 of Amphiphysin II (UniProt O00499 520-593); assay: pull-down; GST or GST fusion proteins (100 μg) adsorbed to glutathione-sepharose 4B beads, two hours at 4°C with 1 mg of HEK293 cellular extract in JS lysis buffer (50 mM Hepes, 150 mM NaCl, 1% Triton-X100); washed three times in ice-cold PBS; Western blot; only the target purified
T2 construct: Amphiphysin II, SH3 domain; cloned into the SalI and BglII sites of pYEX (modified pGEX-2TK); also called AmphIISH3; GST-Amphiphysin II SH3; source: expressed in bacteria; on glutathione-Sepharose 4B beads (pull-down) or purified (peptide arrays)
T2 sequence (looked up): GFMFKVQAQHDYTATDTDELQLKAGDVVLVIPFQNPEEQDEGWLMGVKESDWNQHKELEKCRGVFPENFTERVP

GST-14-3-3 η (human) = molecular target: T3, GST-14-3-3 η (human) (UniProt Q04917); assay: as above
T3 sequence: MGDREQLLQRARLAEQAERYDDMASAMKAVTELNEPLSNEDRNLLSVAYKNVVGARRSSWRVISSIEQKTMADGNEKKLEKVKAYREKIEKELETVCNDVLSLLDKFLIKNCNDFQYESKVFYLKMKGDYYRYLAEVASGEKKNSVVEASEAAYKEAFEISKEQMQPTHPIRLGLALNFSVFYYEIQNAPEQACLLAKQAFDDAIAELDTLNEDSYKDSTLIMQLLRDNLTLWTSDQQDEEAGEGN

[3] = molecular target: T4, POB1 fifteenmer peptide 338…352 (human); assay: peptide or protein array; SPOT peptides on a cellulose membrane; GST fusion proteins (10 micrograms/ml) in PBS/BSA 5%; anti-GST antibody, peroxidase labeled secondary antibody, chemiluminescence in arbitrary units; both purified
T4 sequence (peptide): PPTPPPRPQKTHSRA

[4] = molecular target: T5, positive control phospho-peptide RRFRsLPAAH; assay: as above
T5 sequence (peptide, phosphorylated serine ('s', fifth residue)): RRFRSLPAAH

[5] = molecular target: T6, positive control phospho-peptide RRHRsAPGVR; assay: as above
T6 sequence (peptide, phosphorylated serine ('s', fifth residue)): RRHRSAPGVR

[6] = molecular target: T7, positive control phospho-peptide RRSRsFPVTF; assay: as above
T7 sequence (peptide, phosphorylated serine ('s', fifth residue)): RRSRSFPVTF

[7] = molecular target: GST-POB1 PRD1 (POB1 central region from Pro308 to Val365 as a GST fusion) (human); assay: affinity selection of a phage-displayed cDNA library; GST-POB1 PRD1 immobilized on glutathione-sepharose as bait; human brain cDNA library displayed on lambda phage; selected clones sequenced; only the target purified

In the case of GFP-POB1 full length (1-521) (human), the binding [1] is reported as “binds”, the binding [2] is reported as “binds” and the binding (GST-14-3-3 η (human)) is reported as “binds”.

With “GST-SH3 carboxy-terminal of Grb2 (domain or fragment)” the binding [3] was “binds”.

With GST-14-3-3 sigma (human) the binding [4] was “binds”, the binding [5] was “binds” and the binding [6] was “binds”.

In the case of “GFP-POB1 PRD1 (308-365) (human) (domain or fragment)”, the binding [2] is reported as “binds”.

B1: Src homology 3 domain (SH3) of Amphiphysin II displayed on lambda phage (domain or fragment, UniProt O00499 520-593)
chain: GFMFKVQAQHDYTATDTDELQLKAGDVVLVIPFQNPEEQDEGWLMGVKESDWNQHKELEKCRGVFPENFTERVP
In the case of B1, the binding [7] is reported as “binds”.
